Values of other authors in article PMC7648750, “In vitro and in vivo BNCT investigations using a carborane containing sulfonamide targeting CAIX epitopes on malignant pleural mesothelioma and breast cancer cells” (Scientific Reports, 2020).

Tested on: MCF7 cells
Settings: 48 h incubation; cited from earlier work

CC(=O)Nc1nnc(S(N)(=O)=O)s1 [AZ, 5-acetamido-1,3,4-thiadiazole-2-sulfonamide, reference compound]
IC50: > 800 µM
